Data: paper PMC4222359
No constants are given. Whether binding was seen depends on the method and setting. Binding seen in cells or lysates may run through a third protein. Here binding means that the protein was enriched with, or labelled near, the bait; the list need not be complete. No binding means not detected with the bait. Tags and fused reporters may be left off the sequences shown.

Amino acid sequences for entries named in this document (tags omitted).
UniProt P54098: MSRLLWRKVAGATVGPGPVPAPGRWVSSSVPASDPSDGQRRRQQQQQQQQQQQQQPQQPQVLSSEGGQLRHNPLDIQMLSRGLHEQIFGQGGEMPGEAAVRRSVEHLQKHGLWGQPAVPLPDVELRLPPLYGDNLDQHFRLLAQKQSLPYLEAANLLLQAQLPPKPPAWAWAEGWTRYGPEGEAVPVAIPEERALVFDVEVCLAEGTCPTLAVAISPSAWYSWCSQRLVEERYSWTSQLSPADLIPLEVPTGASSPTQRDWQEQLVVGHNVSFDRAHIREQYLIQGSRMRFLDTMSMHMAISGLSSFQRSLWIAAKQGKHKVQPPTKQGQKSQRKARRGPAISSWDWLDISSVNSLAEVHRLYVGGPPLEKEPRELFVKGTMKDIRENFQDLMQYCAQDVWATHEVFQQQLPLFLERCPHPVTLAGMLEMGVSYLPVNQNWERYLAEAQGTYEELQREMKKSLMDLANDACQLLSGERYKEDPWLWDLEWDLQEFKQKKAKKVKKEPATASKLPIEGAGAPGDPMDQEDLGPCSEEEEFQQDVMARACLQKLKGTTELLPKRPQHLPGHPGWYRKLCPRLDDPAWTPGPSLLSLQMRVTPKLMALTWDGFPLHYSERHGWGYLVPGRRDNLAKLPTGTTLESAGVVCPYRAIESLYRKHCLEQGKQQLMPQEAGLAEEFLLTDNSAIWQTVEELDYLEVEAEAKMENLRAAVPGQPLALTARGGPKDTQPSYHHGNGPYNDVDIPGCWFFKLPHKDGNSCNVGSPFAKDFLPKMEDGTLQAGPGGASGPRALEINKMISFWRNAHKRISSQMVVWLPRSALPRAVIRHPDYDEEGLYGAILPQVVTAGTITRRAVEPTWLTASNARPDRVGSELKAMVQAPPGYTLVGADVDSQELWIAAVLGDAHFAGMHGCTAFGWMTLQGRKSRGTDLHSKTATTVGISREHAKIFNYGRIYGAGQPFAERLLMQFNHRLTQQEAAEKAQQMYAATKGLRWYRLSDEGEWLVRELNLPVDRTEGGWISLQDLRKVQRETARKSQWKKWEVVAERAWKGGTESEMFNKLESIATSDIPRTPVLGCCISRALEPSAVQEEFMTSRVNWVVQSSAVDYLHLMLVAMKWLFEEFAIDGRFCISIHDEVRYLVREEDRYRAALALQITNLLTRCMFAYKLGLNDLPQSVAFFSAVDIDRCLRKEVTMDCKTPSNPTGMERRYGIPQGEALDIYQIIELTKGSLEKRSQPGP

Experiments:
MGME1.Flag (human) = target: T1, MGME1.Flag (human) (UniProt Q9BQP7); test: affinity purification with mass spectrometry; MGME1.Flag as bait from extracts of isolated HEK293T mitochondria, anti-Flag beads; five bait purifications and one control purification (untransfected parental cells); label-free LC-MS of eluates
T1 sequence: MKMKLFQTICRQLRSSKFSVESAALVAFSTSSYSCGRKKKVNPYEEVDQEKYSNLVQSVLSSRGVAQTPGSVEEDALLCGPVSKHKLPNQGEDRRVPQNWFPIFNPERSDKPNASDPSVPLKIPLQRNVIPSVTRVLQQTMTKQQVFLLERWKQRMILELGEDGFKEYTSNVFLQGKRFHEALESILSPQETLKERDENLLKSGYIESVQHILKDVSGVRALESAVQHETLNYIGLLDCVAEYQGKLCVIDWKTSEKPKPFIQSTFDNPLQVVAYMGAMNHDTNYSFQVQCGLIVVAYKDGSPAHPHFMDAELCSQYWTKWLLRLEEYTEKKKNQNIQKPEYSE

[1] = target: T2, MGME1.Flag (human), Q9BQP7; test: as above; conditions: remark: other sources report otherwise
T2 chain: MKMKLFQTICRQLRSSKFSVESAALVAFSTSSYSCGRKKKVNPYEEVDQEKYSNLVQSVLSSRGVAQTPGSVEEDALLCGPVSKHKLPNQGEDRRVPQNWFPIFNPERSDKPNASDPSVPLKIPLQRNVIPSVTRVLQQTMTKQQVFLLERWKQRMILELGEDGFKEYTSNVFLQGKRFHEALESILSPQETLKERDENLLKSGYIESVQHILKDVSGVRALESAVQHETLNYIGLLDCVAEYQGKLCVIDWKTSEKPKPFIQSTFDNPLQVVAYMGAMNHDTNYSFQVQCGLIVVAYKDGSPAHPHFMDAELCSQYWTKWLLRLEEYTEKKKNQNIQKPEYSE

With “PolgA (from UniProt P54098 1-1239) (enzyme)” the binding (MGME1.Flag (human)) was “binds”.

B1: TFAM, Q00059 43-246 (protein)
chain: SSVLASCPKKPVSSYLRFSKEQLPIFKAQNPDAKTTELIRRIAQRWRELPDSKKKIYQDAYRAEWQVYKEEISRFKEQLTPSQIMSLEKEIMDKHLKRKAMTKKKELTLLGKPKRPRSAYNVYVAERFQEAKGDSPQEKLKTVKENWKNLSDSEKELYIQHAKEDETRYHNEMKSWEEQMIEVGRKDLLRRTIKKQRKYGAEEC
With B1 the binding [1] was “no binding”.

B2: mtSSB (protein, UniProt Q04837 17-148)
chain: ESETTTSLVLERSLNRVHLLGRVGQDPVLRQVEGKNPVTIFSLATNEMWRSGDSEVYQLGDVSQKTTWHRISVFRPGLRDVAYQYVKKGSRIYLEGKIDYGEYMDKNNVRRQATTIIADNIIFLSDQTKEKE
B2 was tested, and the binding (MGME1.Flag (human)) was “no binding”.
